These are yes or no findings as the source states them, for the method shown. Binding seen in cells or lysates may run through a third protein. Some binding calls cover weakened binding; strength is not graded here.

Amino acid sequences for entries named in this document (tags omitted).
UniProt P04198: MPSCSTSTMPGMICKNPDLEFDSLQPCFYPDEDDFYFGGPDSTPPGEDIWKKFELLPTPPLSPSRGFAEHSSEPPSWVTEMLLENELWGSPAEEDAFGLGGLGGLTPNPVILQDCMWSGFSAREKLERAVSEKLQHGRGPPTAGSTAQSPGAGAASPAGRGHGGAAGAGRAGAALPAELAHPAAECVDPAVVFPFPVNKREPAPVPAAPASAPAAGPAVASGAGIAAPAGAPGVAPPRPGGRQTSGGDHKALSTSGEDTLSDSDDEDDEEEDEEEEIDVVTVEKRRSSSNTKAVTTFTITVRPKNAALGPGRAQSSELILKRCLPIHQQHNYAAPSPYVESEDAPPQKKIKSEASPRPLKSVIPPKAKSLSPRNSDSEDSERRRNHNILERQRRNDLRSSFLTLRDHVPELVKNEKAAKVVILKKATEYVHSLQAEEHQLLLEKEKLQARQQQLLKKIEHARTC
UniProt P35226: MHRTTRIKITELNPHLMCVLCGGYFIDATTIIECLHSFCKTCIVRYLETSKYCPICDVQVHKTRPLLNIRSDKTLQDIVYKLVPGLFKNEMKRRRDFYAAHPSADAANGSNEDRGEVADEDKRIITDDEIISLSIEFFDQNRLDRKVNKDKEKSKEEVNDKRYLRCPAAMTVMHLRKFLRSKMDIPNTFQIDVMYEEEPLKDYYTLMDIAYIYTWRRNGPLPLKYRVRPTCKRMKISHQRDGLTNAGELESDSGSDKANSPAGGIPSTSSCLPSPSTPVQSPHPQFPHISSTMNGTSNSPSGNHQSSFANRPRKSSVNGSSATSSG
UniProt Q06587: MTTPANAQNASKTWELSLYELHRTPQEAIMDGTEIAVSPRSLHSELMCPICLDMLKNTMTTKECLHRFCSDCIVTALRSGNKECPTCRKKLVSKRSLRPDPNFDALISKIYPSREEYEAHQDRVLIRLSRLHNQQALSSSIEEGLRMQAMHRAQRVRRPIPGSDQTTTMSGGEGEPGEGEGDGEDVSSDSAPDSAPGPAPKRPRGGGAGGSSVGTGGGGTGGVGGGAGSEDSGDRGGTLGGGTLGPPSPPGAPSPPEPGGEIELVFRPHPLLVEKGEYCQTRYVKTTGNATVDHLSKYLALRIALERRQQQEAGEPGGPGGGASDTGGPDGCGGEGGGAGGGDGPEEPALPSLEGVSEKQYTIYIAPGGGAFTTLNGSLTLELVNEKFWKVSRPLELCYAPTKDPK
UniProt Q99496: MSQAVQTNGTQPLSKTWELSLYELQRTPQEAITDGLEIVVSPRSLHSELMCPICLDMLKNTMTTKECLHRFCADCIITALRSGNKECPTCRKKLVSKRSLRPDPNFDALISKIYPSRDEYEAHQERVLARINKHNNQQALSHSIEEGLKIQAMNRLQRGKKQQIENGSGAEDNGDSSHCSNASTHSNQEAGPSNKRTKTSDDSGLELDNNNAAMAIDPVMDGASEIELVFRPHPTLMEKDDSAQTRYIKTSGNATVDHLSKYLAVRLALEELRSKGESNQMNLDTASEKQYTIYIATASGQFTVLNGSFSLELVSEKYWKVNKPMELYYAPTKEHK

Drawing on article PMC6923955, this text covers binding for three substances.

The target of the experiment is MYCN Proto-Oncogene, BHLH Transcription Factor (human (endogenous in BE(2)-C)) (UniProt P04198). Description: co-IP; BE(2)-C cell lysates immunoprecipitated with antibodies against MYCN, BMI1, RING1A or RING1B; Western blot; IgG control antibody and 1% of the lysate as input. A general note: In western blotting, separated proteins are transferred to a membrane and probed.

Turning to BMI1 (from UniProt P35226 1-326), the binding entry is recorded as “binds”.

As to RING1A (from UniProt Q06587 1-406), the binding result is listed as “binds”.

With RING1B (from UniProt Q99496 1-336), the binding entry is recorded as “binds”.
